Data published in PubChem BioAssay AID220 (DTP/NCI, 2004).
The list shows only some results of the screen, not a fair sample: it gathers tests that were run many times, whatever their T/C, doses with no T/C, and many T/C values between a quarter and a half above the control. Further doses and runs are listed elsewhere. T/C gives the treated animals as a percentage of the vehicle group. Schedule codes are those of the source, taken here to give the interval after Q, in days (D) or hours (H), and the number of doses after X. Some T/C values carry the count of animals alive at the toxicity check (mostly the fifth day); where none is given, no animal had died by that day. Some entries were tested several times; the values are given in rising order. Some entries give survivors of the animals treated and no T/C: the source files T/C as zero there, which appears to mark a toxic dose or a test without result, not a measured value. Survivors were counted at the toxicity check, usually on the fifth day, unless a day is given; later deaths do not show.

System: CD8F1 mice, subcutaneous mammary adenocarcinoma, T/C%
Experiment: NCI In Vivo Anticancer Drug Screen. Data for tumor model Mammary Adenocarcinoma CD8F1 (subcutaneous) in CD8F1
Details: higher T/C = larger tumour
Experimental: The antitumor activity of compounds was measured in mice bearing transplantable tumors. Survival or tumor size were measured and the results are expressed as the measurement made in the treated group (T) divided by the measurement made in the vehicle treated control group (C). The tumor model used in this assay is Mammary Adenocarcinoma CD8F1 (subcutaneous) in CD8F1

[1] = T/C endpoint: median tumor weight change, dose: 1000.0 mg/kg/injection, schedule: Q01DX001 (ip), vehicle: suspension in saline
[2] = T/C endpoint: median tumor weight change, dose: 2000.0 mg/kg/injection, schedule: Q01DX001 (ip), vehicle: suspension in saline
[3] = T/C endpoint: median tumor weight (est.), dose: 100.0 mg/kg/injection, schedule: Q07DX005 (ip), vehicle: saline with Tween-80, evaluated on day 30
[4] = T/C endpoint: median tumor weight (est.), dose: 200.0 mg/kg/injection, schedule: Q07DX005 (ip), vehicle: saline with Tween-80
[5] = T/C endpoint: median tumor weight change, dose: 1000.0 mg/kg/injection, schedule: Q01DX001 (ip), vehicle: saline with Tween-80
[6] = T/C endpoint: median tumor weight change, dose: 2000.0 mg/kg/injection, schedule: Q01DX001 (ip), vehicle: saline with Tween-80
[7] = T/C endpoint: median tumor weight change, dose: 500.0 mg/kg/injection, schedule: Q01DX001 (ip), vehicle: saline with Tween-80

With `CCCCCC(O)C1C(=O)OC(C)C(O)/C=C/C=C/C=C/C=C\C=C(\C)C(O)CC(O)CC(O)CC(O)CC(O)CC(O)CC1O` (stereo not given) the T/C (T/C endpoint: median tumor weight change, dose: 31.25 mg/kg/injection, schedule: Q01DX001 (ip), vehicle: distilled water + Tween-80, evaluated on day 35) was 137 % of control, the survivor count (T/C endpoint: median tumor weight change, dose: 125.0 mg/kg/injection, schedule: Q01DX001 (ip), vehicle: distilled water + Tween-80) was 4 of 10 on day 35 and the survivor count (T/C endpoint: median tumor weight change, dose: 250.0 mg/kg/injection, schedule: Q01DX001 (ip), vehicle: distilled water + Tween-80) was 0 of 10 on day 35. The survivor count (T/C endpoint: median tumor weight change, dose: 500.0 mg/kg/injection, schedule: Q01DX001 (ip), vehicle: distilled water + Tween-80) was 0 of 10 on day 35.

In the case of `CC(O)CCC(=O)c1ccoc1` (stereo not given), the survivor count (T/C endpoint: median tumor weight change, dose: 13.3 mg/kg/injection, schedule: Q03HX003 (ip), vehicle: saline) is reported as 5 of 10 on day 25 and the survivor count (T/C endpoint: median tumor weight change, dose: 26.6 mg/kg/injection, schedule: Q03HX003 (ip), vehicle: saline) is reported as 0 of 10 on day 25.

In the case of `CCN=C=NCCCN(C)C`, the survivor count (T/C endpoint: median tumor weight change, dose: 62.5 mg/kg/injection, schedule: Q01DX001 (ip), vehicle: saline) is reported as 3 of 9 on day 36, the survivor count (T/C endpoint: median tumor weight change, dose: 125.0 mg/kg/injection, schedule: Q01DX001 (ip), vehicle: saline) is reported as 0 of 10 on day 36 and the survivor count (T/C endpoint: median tumor weight change, dose: 250.0 mg/kg/injection, schedule: Q01DX001 (ip), vehicle: saline) is reported as 0 of 10 on day 36. For the same compound, the survivor count (T/C endpoint: median tumor weight change, dose: 500.0 mg/kg/injection, schedule: Q01DX001 (ip), vehicle: saline) was 0 of 10 on day 36 and the survivor count (T/C endpoint: median tumor weight change, dose: 1000.0 mg/kg/injection, schedule: Q01DX001 (ip), vehicle: saline) was 0 of 9 on day 36.

For `O=C(O)CSc1nc(-c2ccccc2)c(-c2ccccc2)n1-c1ccccn1`, the survivor count (T/C endpoint: median tumor weight (est.), dose: 200.0 mg/kg/injection, schedule: Q07DX005 (ip), vehicle: water) was 1 of 10 on day 30 and the survivor count (T/C endpoint: median tumor weight (est.), dose: 400.0 mg/kg/injection, schedule: Q07DX005 (ip), vehicle: water) was 0 of 10 on day 30.

With `C[CH2][Ge]1([CH2]C)[CH2]CC2(CCN(CCCN(C)C)C2)C[CH2]1` the T/C (T/C endpoint: median tumor weight (est.), dose: 16.0 mg/kg/injection, schedule: Q07DX005 (ip), vehicle: saline, evaluated on day 30) was 142 % of control, the survivor count (T/C endpoint: median tumor weight (est.), dose: 128.0 mg/kg/injection, schedule: Q07DX005 (ip), vehicle: saline) was 1 of 10 on day 30 and 5 of 10 on day 30 and the survivor count (T/C endpoint: median tumor weight (est.), dose: 256.0 mg/kg/injection, schedule: Q07DX005 (ip), vehicle: saline) was 0 of 10 on day 30.

In the case of `Cc1cc(NS(=O)(=O)c2ccc(N=Nc3cc(N=Nc4ccc(S(=O)(=O)Nc5cc(C)nc(C)n5)cc4)c4c(NC(=O)C(Cl)Cl)cccc4c3OC(=O)C(Cl)Cl)cc2)nc(C)n1` (tested in a mixture with another compound), the T/C (T/C endpoint: median tumor weight change, dose: 125.0 mg/kg/injection, schedule: Q01DX001 (ip), vehicle: suspension in saline, evaluated on day 41) is reported as 125 % of control, the survivor count [1] is reported as 3 of 10 on day 41 and the survivor count [2] is reported as 0 of 10 on day 41.

In the case of `Cc1ccc2nc(-c3ccc4nc(-c5ccc(N=Nc6ccc(-c7nc8ccc(-c9nc%10ccc(C)c(S(=O)(=O)O)c%10s9)cc8s7)cc6)cc5)sc4c3)sc2c1S(=O)(=O)O`, the survivor count (T/C endpoint: median tumor weight change, dose: 500.0 mg/kg/injection, schedule: Q01DX001 (ip), vehicle: suspension in saline) is reported as 6 of 10 on day 36, the survivor count [1] is reported as 0 of 10 on day 36 and the survivor count [2] is reported as 3 of 10 on day 36.

`O=C1N[C@H]2[C@H](O)[C@H](O)[C@@H](O)[C@H](O)[C@@H]2c2cc3c(c(O)c21)OCO3` was tested, and the survivor count (T/C endpoint: median tumor weight change, dose: 10.0 mg/kg/injection, schedule: Q01DX005 (ip), vehicle: saline + alcohol) was 5 of 10 on day 25 and the survivor count (T/C endpoint: median tumor weight change, dose: 20.0 mg/kg/injection, schedule: Q01DX005 (ip), vehicle: saline + alcohol) was 0 of 10 on day 25.

`COC(=Nc1ccccc1)SSC(C)C` was tested, and the T/C [3] was 126 % of control [5 of 6 alive on day 30], the survivor count [4] was 6 of 10 on day 30 and the survivor count (T/C endpoint: median tumor weight (est.), dose: 400.0 mg/kg/injection, schedule: Q07DX005 (ip), vehicle: saline with Tween-80) was 2 of 10 on day 30.

In the case of `c1ccc2c(c1)[As]=c1ccccc1=[As]2` (stereo not given), the survivor count (T/C endpoint: median tumor weight change, dose: 480.0 mg/kg/injection, schedule: Q01DX001 (ip), vehicle: saline with Tween-80) is reported as 0 of 10 on day 28.

For `NC(=O)c1ccc[n+](Cc2c(Cl)cccc2Cl)c1`, the T/C (T/C endpoint: median tumor weight (est.), dose: 24.0 mg/kg/injection, schedule: Q07DX005 (ip), vehicle: saline, evaluated on day 30) was 145 % of control.

`O=[N+]([O-])c1ccc(N2CCOCC2)c2c1no[n+]2[O-]` was tested, and the survivor count [5] was 5 of 10 on day 29.

For `CCOC(=O)c1cn(C)c2c1C(O)=C(C(=O)OC)CC(=O)N2`, the survivor count [6] was 2 of 10 on day 29.

In the case of `CC(C)CC(=O)NC(C(=O)NC(C(=O)NC(CC(C)C)C(O)CC(=O)NC(C)C(=O)NC(CC(C)C)C(O)CC(=O)O)C(C)C)C(C)C` (stereo not given), the T/C (T/C endpoint: median tumor weight change, dose: 125.0 mg/kg/injection, schedule: Q01DX001 (ip), vehicle: Klucel (hydroxypropylcellulose) (HPC), evaluated on day 36) is reported as 125 % of control, the T/C (T/C endpoint: median tumor weight change, dose: 250.0 mg/kg/injection, schedule: Q01DX001 (ip), vehicle: Klucel (hydroxypropylcellulose) (HPC), evaluated on day 36) is reported as 130 % of control and the survivor count (T/C endpoint: median tumor weight change, dose: 500.0 mg/kg/injection, schedule: Q01DX001 (ip), vehicle: Klucel (hydroxypropylcellulose) (HPC)) is reported as 4 of 10 on day 36. The survivor count (T/C endpoint: median tumor weight change, dose: 1000.0 mg/kg/injection, schedule: Q01DX001 (ip), vehicle: Klucel (hydroxypropylcellulose) (HPC)) was 0 of 10 on day 36.

In the case of `Cc1ccc(S(=O)(=O)NC(=S)S)cc1`, the T/C (T/C endpoint: median tumor weight (est.), dose: 50.0 mg/kg/injection, schedule: Q07DX005 (ip), vehicle: saline with Tween-80, evaluated on day 30) is reported as 125 % of control [9 of 10 alive].

`BrCC[Se]c1ccccc1` was tested, and the T/C [3] was 145 % of control and the survivor count [4] was 0 of 10 on day 30.

In the case of `CC(=O)C(O)N1C(=O)C=CC1=O` (stereo not given), the T/C (T/C endpoint: median tumor weight (est.), dose: 10.0 mg/kg/injection, schedule: Q07DX005 (ip), vehicle: saline, evaluated on day 30) is reported as 141 % of control [7 of 10 alive].

`O=S(=O)(CCl)OCCCl` was tested, and the survivor count [7] was 6 of 10 on day 32 and the survivor count [5] was 1 of 10 on day 32.

For `CC(=O)Nc1ccc(Nc2ccc(C(=C3C=CC(=[N+](C)CCC#N)C=C3)c3ccc(N(C)CCC#N)cc3)cc2)cc1`, the survivor count (T/C endpoint: median tumor weight change, dose: 250.0 mg/kg/injection, schedule: Q01DX001 (ip), vehicle: saline with Tween-80) was 1 of 9 on day 35, the survivor count [7] was 0 of 10 on day 35 and the survivor count [5] was 0 of 10 on day 35. The survivor count [6] was 0 of 10 on day 35.

With `O=S(=O)(O)O.[NH-]C1CCCCC1[NH-].[Pt+2]` (stereo not given) the survivor count (T/C endpoint: median tumor weight (est.), dose: 10.0 mg/kg/injection, schedule: Q07DX005 (ip), vehicle: dextrose) was 5 of 10.

For `CN(N=O)C(=O)N[C@@H](C=O)[C@@H](O)[C@H](O)[C@H](O)CO`, the T/C (T/C endpoint: median tumor weight (est.), dose: 64.0 mg/kg/injection, schedule: Q07DX005 (ip), vehicle: other, evaluated on day 30) was 127 % of control, the T/C (T/C endpoint: median tumor weight (est.), dose: 128.0 mg/kg/injection, schedule: Q07DX005 (ip), vehicle: Klucel (hydroxypropylcellulose) (HPC), evaluated on day 30) was 140 % of control and the T/C (T/C endpoint: median tumor weight (est.), dose: 128.0 mg/kg/injection, schedule: Q07DX005 (ip), vehicle: other, evaluated on day 30) was 149 % of control. For the same compound, the survivor count (T/C endpoint: median tumor weight (est.), dose: 256.0 mg/kg/injection, schedule: Q07DX005 (ip), vehicle: Klucel (hydroxypropylcellulose) (HPC)) was 5 of 10 and the survivor count (T/C endpoint: median tumor weight (est.), dose: 256.0 mg/kg/injection, schedule: Q07DX005 (ip), vehicle: other) was 6 of 10 on day 30.

For `N#Cc1nc(C#N)c(Sc2ccccc2)c(Sc2ccccc2)c1Sc1ccccc1`, the T/C (T/C endpoint: median tumor weight (est.), dose: 6.25 mg/kg/injection, schedule: Q07DX005 (ip), vehicle: saline with Tween-80, evaluated on day 30) was 125 % of control, the survivor count (T/C endpoint: median tumor weight (est.), dose: 12.5 mg/kg/injection, schedule: Q07DX005 (ip), vehicle: saline with Tween-80) was 5 of 10 on day 30 and the T/C (T/C endpoint: median tumor weight (est.), dose: 25.0 mg/kg/injection, schedule: Q07DX005 (ip), vehicle: saline with Tween-80, evaluated on day 30) was 133 [9 of 10 alive on day 30] and 135 % of control.

In the case of `CC[C@]1(O)C[C@H](OC2CC(N(C)C)C(OC3CC(O)C(O)C(C)O3)C(C)O2)c2c(cc3c(c2O)C(=O)c2c(O)ccc(O)c2C3=O)[C@H]1C(=O)OC` (stereo not given in full), the T/C (T/C endpoint: median tumor weight (est.), dose: 2.0 mg/kg/injection, schedule: Q07DX005 (ip), vehicle: Klucel (hydroxypropylcellulose) (HPC), evaluated on day 32) is reported as 136 % of control.
